Experimental data published in article PMC6375917 (2019).
Where a chain is given by its changes, count along the chain named. These are yes or no findings as the source states them, for the method shown. In cells and extracts the contact can be indirect. Some entries that bind do so weakly or less than the wild type. Where a sequence is shown, tags or fusion partners need not be part of it. One block for each binder: values may come before it.

Legend:
Assay in all cases: pull-down; mitochondria from cells expressing His-tagged Tim50 versions solubilized with 1% digitonin, incubated with Ni-NTA agarose beads at 4 °C, eluted with Laemmli buffer with 300 mM imidazole; immunoblot with Tim50, Tim17 and Tim23 antibodies
[1] = target: T1, His-tagged but otherwise wild type Tim50 (yeast) (UniProt Q02776)
T1 sequence: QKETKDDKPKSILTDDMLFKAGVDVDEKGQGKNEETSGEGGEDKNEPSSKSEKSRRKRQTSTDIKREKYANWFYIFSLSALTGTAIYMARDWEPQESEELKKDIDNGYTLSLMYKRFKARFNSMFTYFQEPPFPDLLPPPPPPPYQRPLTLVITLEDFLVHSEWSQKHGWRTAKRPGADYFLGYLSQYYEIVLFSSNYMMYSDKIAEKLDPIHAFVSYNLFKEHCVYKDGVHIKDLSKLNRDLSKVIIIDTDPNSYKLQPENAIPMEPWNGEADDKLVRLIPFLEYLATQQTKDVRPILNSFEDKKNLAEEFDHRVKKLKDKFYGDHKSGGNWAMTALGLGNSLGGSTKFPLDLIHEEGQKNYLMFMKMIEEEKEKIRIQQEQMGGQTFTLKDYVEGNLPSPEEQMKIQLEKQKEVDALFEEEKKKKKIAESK

[2] = target: T2, His-tagged Tim50 mutant #2 (L202M,R218G,S298R,L362S,S386F) (yeast) (UniProt Q02776)
T2 sequence: T1 sequence with L159M, R175G, S255R, L319S, S343F

[3] = target: T3, His-tagged Tim50 R339S (yeast) (UniProt Q02776)
T3 sequence: T1 sequence with R296S

[4] = target: T4, His-tagged Tim50 A221D/D278V (yeast) (UniProt Q02776)
T4 sequence: T1 sequence with A178D, D235V

[5] = target: T5, His-tagged Tim50 D337V (yeast) (UniProt Q02776)
T5 sequence: T1 sequence with D294V

binding [1]: binds
binding [2]: binds
binding [3]: binds
binding [4]: no binding
binding [5]: binds
B1: Tim23 (protein, UniProt P32897 1-222)
chain: MSWLFGDKTPTDDANAAVGGQDTTKPKELSLKQSLGFEPNINNIISGPGGMHVDTARLHPLAGLDKGVEYLDLEEEQLSSLEGSQGLIPSRGWTDDLCYGTGAVYLLGLGIGGFSGMMQGLQNIPPNSPGKLQLNTVLNHITKRGPFLGNNAGILALSYNIINSTIDALRGKHDTAGSIGAGALTGALFKSSKGLKPMGYSSAMVAAACAVWCSVKKRLLEK

binding [1]: binds
binding [2]: binds
B2: Tim17 (protein, UniProt P39515 1-158)
chain: MSADHSRDPCPIVILNDFGGAFAMGAIGGVVWHGIKGFRNSPLGERGSGAMSAIKARAPVLGGNFGVWGGLFSTFDCAVKAVRKREDPWNAIIAGFFTGGALAVRGGWRHTRNSSITCACLLGVIEGVGLMFQRYAAWQAKPMAPPLPEAPSSQPLQA
